In the supplement of paper PMC11237882 one finds enrichment score data, which are given here for 44 molecules.

Sequences and labels used below:
T1: Homer1 EVH1 domain
T1 chain: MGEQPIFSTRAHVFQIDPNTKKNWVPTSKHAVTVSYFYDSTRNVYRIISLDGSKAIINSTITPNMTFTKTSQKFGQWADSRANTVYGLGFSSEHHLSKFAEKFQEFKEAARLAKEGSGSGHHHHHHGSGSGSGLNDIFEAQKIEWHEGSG

B1: unnamed (peptide)
chain: RDRSISYSGCMIQLFFFCVCVISECYMLAAMACDRY
B2: unnamed (peptide)
chain: HWENPVVSSQFYGALLGTVCMLYLLPLCWVLTLLNS
B3: unnamed (peptide)
chain: MTPPKLRASLSPSLLLLLSGCLLAAARREKGAASNV
B4: unnamed (peptide)
chain: SDVRHAVATIFGIYFVIFCFGWYSVHLFVLVLMCYA
B5: unnamed (peptide)
chain: KTNGTGRVRLPPAGFATEGWFIGFVSAIILLLLVLL
B6: unnamed (peptide)
chain: YMHAGSLLLKMGQHGNNVQWRALSELAALCYLIAFQ
B7: unnamed (peptide)
chain: MATAERRALGIGFQWLSLATLVLICAGQGGRREDGG
B8: unnamed (peptide)
chain: PWAPHALPFWDTPLNHGLNVFVGAALCITMLGLGCT
B9: unnamed (peptide)
chain: PLGGHTVWQVVFIAFLTGILALVTIIGNILVIVSFK
B10: unnamed (peptide)
chain: NNQKYNFFTFLPGVLFNQFKYFFNLYFLLLACSQFV
B11: unnamed (peptide)
chain: FLAGAATFSIIVNTVLLIVEWITHQFCAMALTLTLC
B12: unnamed (peptide)
chain: WIRNLDDELHAIIAGFLAGISMMFYKSTTISMYLAS
B13: unnamed (peptide)
chain: ADLAKVIQTKSTQCLSYPLTIATLLTSASWCLYGLR
B14: unnamed (peptide)
chain: SDLPQLVAAFHSLVGLAAVLTCIAEYIIEYPHFATD
B15: unnamed (peptide)
chain: MSPRGTGCSAGLLMTVGWLLLAGLQSARGTNVTAAG
B16: unnamed (peptide)
chain: REDIRSIEGKFGTGIQSYFSFLRFLVLLNLVIFLII
B17: unnamed (peptide)
chain: NVTLLSKQAKFAYKDEYEKFKLYLTIILILISFACR
B18: unnamed (peptide)
chain: LHVYQAYWKAVGQGLALAILFSLLLMQATRNAADWW
B19: unnamed (peptide)
chain: PDTRTREASENSGTRSRAWLAVALGAGGAVLLLLWG
B20: unnamed (peptide)
chain: RIFTVPVHNSSFIPLFLIFAMLLPQIPVQFAQCRWF
B21: unnamed (peptide)
chain: FPQSSSIVIFLLFFLYGLSSVFFALMLTPLFKKSKH
B22: unnamed (peptide)
chain: LLYIWQVYSCYFLYATYGTLAFLFSPLRTWLTLLTP
B23: unnamed (peptide)
chain: SVTGVHMKILPFVAQGGVATDFFIFFCIISFSTFIY
B24: unnamed (peptide)
chain: KITSKHVKMMLSGVCLFAVFIALLPILGHRDYKIQA
B25: unnamed (peptide)
chain: MGYARKVGWVTAGLVIGARACYCIYRLTRGRKQNKE
B26: unnamed (peptide)
chain: AALMSRWKATRIFSYGYGRIEILSGFINGLFLIVIA
B27: unnamed (peptide)
chain: IVLTAGVILLLAGILVLIPVCWTAHAIIQDFYNPLV
B28: unnamed (peptide)
chain: EDVAVAAAVLESLLKLALLAGLTITVFGFAYSQLAL
B29: unnamed (peptide)
chain: FALCALNALTTTVCLVAAALRYLQIFATRRSCIDES
B30: unnamed (peptide)
chain: WYERFVQPCLVELLGSALFIFIGCLSVIENGTDTGL
B31: unnamed (peptide)
chain: GFEYAILMTMVLTIFIKYVLHSVDLQSENPWDNKAG
B32: unnamed (peptide)
chain: PEGRPRSRHGNGGLAALPYLRLRHPLSVLGINYQQF
B33: unnamed (peptide)
chain: LMALCLMALPFIPASNLFFPVGFVVAERVLYVPSMG
B34: unnamed (peptide)
chain: LLEDSCHYLLYSLIFVNSYPVTMSIFPVLLFSLLHA
B35: unnamed (peptide)
chain: CPLFSGIGYASVVIVSLLNVYYIVILAWATYYLFQS
B36: unnamed (peptide)
chain: SWKNVRKNVDTYNPWDRLSVAVISPYLQCVLWIFLL
B37: unnamed (peptide)
chain: PPPVPGNLLVPPPPVFNAPQGLGWSQVPRGQPTFTK
B38: unnamed (peptide)
chain: SSSFSSSRASSSRSGGGGHGSSRGFGGGGYGGFYNS
B39: unnamed (peptide)
chain: NTKEFWSFIYSVAALACIAITEITFFMGYTIATILH
B40: unnamed (peptide)
chain: GVASALAMALIGAVSSYISYQQKKFCFSIQQGLNAH
B41: unnamed (peptide)
chain: HRYNFYLQHPINVNNIIIDTILIITTLIPISVHVHS
B42: unnamed (peptide)
chain: KTFFSLKRIRRHIITHSGYTPYKCKVCGKAFDYPSR
B43: unnamed (peptide)
chain: GLSAVPPTRVPGPLAPRRRRYTLTPARLRWDHFNLT
B44: unnamed (peptide)
chain: ILMSSGPSIGIKDYNILTRITQLGIIISLICLAICI

Some of the results follow. Values are worked out from sequencing counts and are noisy.

The assay concerns the target T1, Homer1 EVH1 domain. The assay is described as follows: enrichment score (AUC of log2 frequency ratio across FACS sorting rounds) (log2 AUC); higher = stronger enrichment for Homer1 EVH1 binding.
For the molecule B1, the enrichment score is -4.54. For B2 the value was 4.43; for B3, 3.98. For B4 the value was -0.109. For B5, the enrichment score is -1.45. For B6 the value was 3.53; for B7, 3.16. Turning to B8, the enrichment score stood at 1.74. For B9 the value was 4.11. In the case of B10, the enrichment score was found to be 3.19.

Regarding B11, the enrichment score was -0.488. For B12 the value was -0.0605; for B13, 3.52; for B14, -0.149.

Consider B15, for which the enrichment score was -0.973. For B16 the value was 1.04; for B17, -0.392. Next, B18: 2.65; B19: 0.0518; B20: 3.65. For B21 the value was 3.46.

Regarding B22, the enrichment score was 1.25. Next, B23: 0.273; B24: 1.06. Next, B25: 3.2.

In the case of B26, the enrichment score was -1.96. Next, B27: 1.13; B28: 4.01; B29: 2.18.

Take B30: the enrichment score is 2.36. For B31 the value was 3.49; for B32, -0.955; for B33, 0.25.

For B34, the enrichment score was 1.46. For B35 the value was -1.32; for B36, -0.753.

Turning to B37, the enrichment score turned out to be 1.57. Turning to B38, the enrichment score is -0.704. For B39 the value was 3.47; for B40, 3.59; for B41, -1.15. For B42 the value was 1.98.

Turning to B43, the enrichment score was -0.112. Next, B44: 0.675.
